Consider 78 substances from the supplement of paper PMC5949888.

± gives the standard deviation of the averaged measurements. Most values lie at the floor of the assay. Slopes are relative: functional sequences can read slightly below zero.

In the data set the test system is Saccharomyces cerevisiae PS128 hsf1 delta, HSF1(1-493) fusion. Nature of the data set: growth estimate (transactivation domain function in HSF1 fusion, heat-shock survival) (a.u. (slope of normalised read count over time)); higher = stronger growth at 37°C, i.e. more transactivation activity. The following applies: library: random library.
As for VSGLSNRAHQWRMWKYVLLG, the growth estimate is below -0.25.

Take TRRAIFVELALGCSYSPR: the growth estimate was below -0.25.

For the substance SRNPLLAVRRIGKWRTCCDP, the growth estimate is below -0.25.

For the substance VSEHWAGIFSMAGKLVSPSR, the growth estimate was below -0.25.

As to RESEDPIFSYFLTRFVSKVV, the growth estimate was below -0.25.

With RYSRKDRVTLQLVTTRITRG, the growth estimate was below -0.25.

With ADWQVGLIQ, the growth estimate was below -0.25.

With HVIY, the growth estimate was below -0.25.

For the substance DRYCI, the growth estimate was below -0.25.

Take SIPASSFPADYVRQA: the growth estimate is below -0.25.

In the case of RRVLATGLSEWHTCAESGCH, the growth estimate was below -0.25.

For the substance YKAGKRWLVVKLVYGSARTE, the growth estimate is below -0.25.

On to GFVAISY, for which the growth estimate was below -0.25.

On to MIEAGRSPVASTYVWDLGNY, for which the growth estimate was below -0.25.

Regarding WEHCPGQ, the growth estimate is below -0.25.

As to VRGSSPRFFGSTAEGRLVWG, the growth estimate is below -0.25.

With GLWLIGGCQNFVRRS, the growth estimate was below -0.25.

As for LRCRVSLP, the growth estimate is below -0.25.

Consider FTSLGPRSCVWRNFPPGGHS, for which the growth estimate was below -0.25.

Regarding CYSH, the growth estimate is below -0.25.

With QWGADAVRLSPQKIELVSKP, the growth estimate is below -0.25.

In the case of VMVQCPCTPGSRTTLRMSCI, the growth estimate was below -0.25.

As for IYRGRF, the growth estimate was below -0.25.

In the case of SVRVRSTGLPTRLR, the growth estimate was below -0.25.

VGWAELVYSFPRRSRILSSH: the growth estimate is below -0.25.

With IYLTPSSTFENC, the growth estimate is below -0.25.

Turning to LVPRITVLGR, the growth estimate is below -0.25.

Regarding THPKSLLRALNLGNGGERCP, the growth estimate was below -0.25.

Consider RSGGHRSPVSRWRVGIDRDV, for which the growth estimate was below -0.25.

On to TVAVLMIKVRSHGPTV, for which the growth estimate was below -0.25.

For the substance GTNCYQTVLHWRPGQLQGST, the growth estimate is below -0.25.

SSRDARDESTTNAVQSAEKS: the growth estimate was below -0.25.

With PGTLGRIGSRTNQSLEYRIR, the growth estimate is below -0.25.

For the substance VISSLTYLARRDLLKSAHNP, the growth estimate is below -0.25.

Turning to KERRRA, the growth estimate was below -0.25.

Consider QDSLHSTLLRSAKLKCCFGD, for which the growth estimate is below -0.25.

As for YRSGSRSGQAYLLRIISAKA, the growth estimate was below -0.25.

Regarding ASSLWEGALLTHS, the growth estimate is below -0.25.

For the substance TVIPK, the growth estimate was below -0.25.

Consider RVLQPNMGR, for which the growth estimate was below -0.25.

In the case of FIGILVIASIGWARGRTQVA, the growth estimate is below -0.25.

With MTAGSASTRLINGSNGRYPS, the growth estimate was -0.245.

Turning to GIAMPMKRPGSLVEPTIGIH, the growth estimate is below -0.25.

For RLMADAKKTGRLPGRAIYLL, the growth estimate was below -0.25.

On to AIPKPGLFKDLIPNDGYFRT, for which the growth estimate is below -0.25.

Consider HNLAVCHSIFQRSRAACAHL, for which the growth estimate was below -0.25.

Regarding CVDSTEHWPGNLYNGGRDST, the growth estimate was below -0.25.

As to GPYHVSD, the growth estimate was below -0.25.

Regarding CVSFQRLF, the growth estimate was below -0.25.

Take LGNGWN: the growth estimate was below -0.25.

Turning to GAGDATIWSGRMYRGASLSA, the growth estimate was below -0.25.

For LNTLRQGICGTSSSAY, the growth estimate was below -0.25.

Turning to WPKSPAGPERLP, the growth estimate is below -0.25.

Consider QHTWKRYYHYNPCEMRDCVS, for which the growth estimate is below -0.25.

For the substance YVVVSCLVQHAVRFGGVLCA, the growth estimate was below -0.25.

With CVLSGSLGPRTAGLYGSSDK, the growth estimate is below -0.25.

TEMVGTMRELNQALRVEPFT: the growth estimate is below -0.25.

Turning to TANQETLMTHGRRRFSAFAS, the growth estimate is below -0.25.

In the case of KRVWGVMPVQRHFMEPFTY, the growth estimate was below -0.25.

On to NRGWPAWLI, for which the growth estimate is below -0.25.

On to NGLVLGSQGSRACTRGEQAL, for which the growth estimate is -0.25.

With GRESHKKPGHRGEGVGQGLQ, the growth estimate was below -0.25.

As for VRDPEVTCPGGAKTFGVTRS, the growth estimate is below -0.25.

Consider SPHTPDRRS, for which the growth estimate is below -0.25.

Turning to HCSLLFYARRSPRHHPESRE, the growth estimate is below -0.25.

On to VKPTTWCTWWVVCVSCRSPT, for which the growth estimate is below -0.25.

On to TFARGKLQIAEILAGRRLG, for which the growth estimate is below -0.25.

Consider GYPPFALLHFKGNLFF, for which the growth estimate is below -0.25.

With WPAFAERERCSFGSRSSDAC, the growth estimate was below -0.25.

In the case of QLGTH, the growth estimate is below -0.25.

In the case of VVRNDVVHGSFVGYLETSAE, the growth estimate was -0.25.

Turning to LGD, the growth estimate was -0.247 ± 0.0037.

In the case of ARLRHVPLGGLGWPSRTDFR, the growth estimate was below -0.25.

Consider RVKCRYSRPLAGYTGPGRIM, for which the growth estimate is below -0.25.

In the case of GIMQFSGGAPLGIPHT, the growth estimate is below -0.25.

Consider SPK, for which the growth estimate was below -0.25.

In the case of YLFASTTRYIWVSSTIYGSN, the growth estimate is below -0.25.

As to VGV, the growth estimate was below -0.25.
